## Results of single-concentration screens

Amino acid sequences for entries named in this document (tags omitted). Residues count along the entry.
UniProt P9WPC5, whole entry: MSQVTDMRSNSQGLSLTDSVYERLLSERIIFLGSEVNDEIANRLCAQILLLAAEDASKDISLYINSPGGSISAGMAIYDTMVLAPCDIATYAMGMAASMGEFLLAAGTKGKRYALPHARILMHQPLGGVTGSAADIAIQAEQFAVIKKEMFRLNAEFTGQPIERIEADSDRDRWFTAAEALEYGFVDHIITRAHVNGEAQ
UniProt P9WPC3, whole entry partner: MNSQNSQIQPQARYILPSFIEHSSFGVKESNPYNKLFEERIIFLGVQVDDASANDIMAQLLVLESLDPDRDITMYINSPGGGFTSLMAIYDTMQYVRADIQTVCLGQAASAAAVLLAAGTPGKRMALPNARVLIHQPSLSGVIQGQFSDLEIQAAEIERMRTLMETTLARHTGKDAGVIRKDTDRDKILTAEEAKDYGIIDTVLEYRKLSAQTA
UniProt P9WNZ1, whole entry: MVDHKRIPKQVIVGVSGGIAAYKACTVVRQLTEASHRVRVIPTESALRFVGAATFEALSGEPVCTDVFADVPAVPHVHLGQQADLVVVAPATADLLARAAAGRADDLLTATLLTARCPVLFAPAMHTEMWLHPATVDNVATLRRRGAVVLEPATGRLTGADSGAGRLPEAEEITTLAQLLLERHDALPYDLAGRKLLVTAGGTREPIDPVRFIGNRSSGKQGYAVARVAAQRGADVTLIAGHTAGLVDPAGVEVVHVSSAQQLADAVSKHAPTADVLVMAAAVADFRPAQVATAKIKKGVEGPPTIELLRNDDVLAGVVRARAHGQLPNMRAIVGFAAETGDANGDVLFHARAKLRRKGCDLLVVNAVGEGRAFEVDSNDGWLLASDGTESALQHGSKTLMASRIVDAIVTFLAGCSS
UniProt Q8IDJ8, 1-583: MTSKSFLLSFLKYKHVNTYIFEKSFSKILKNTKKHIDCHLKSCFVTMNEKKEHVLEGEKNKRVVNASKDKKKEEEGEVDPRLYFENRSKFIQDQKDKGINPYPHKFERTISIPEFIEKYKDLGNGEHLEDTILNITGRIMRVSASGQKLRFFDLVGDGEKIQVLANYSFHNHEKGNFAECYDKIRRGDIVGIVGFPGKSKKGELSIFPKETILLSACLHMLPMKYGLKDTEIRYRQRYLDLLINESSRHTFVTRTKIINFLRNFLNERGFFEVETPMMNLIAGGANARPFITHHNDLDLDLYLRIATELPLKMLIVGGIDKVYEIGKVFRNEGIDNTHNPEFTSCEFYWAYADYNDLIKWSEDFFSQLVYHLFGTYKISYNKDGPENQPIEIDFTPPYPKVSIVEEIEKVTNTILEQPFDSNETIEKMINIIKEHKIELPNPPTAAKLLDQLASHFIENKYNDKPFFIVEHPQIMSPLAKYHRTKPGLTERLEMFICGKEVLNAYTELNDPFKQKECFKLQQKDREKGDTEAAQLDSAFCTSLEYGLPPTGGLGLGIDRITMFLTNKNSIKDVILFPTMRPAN
UniProt Q4DA54, 1-478: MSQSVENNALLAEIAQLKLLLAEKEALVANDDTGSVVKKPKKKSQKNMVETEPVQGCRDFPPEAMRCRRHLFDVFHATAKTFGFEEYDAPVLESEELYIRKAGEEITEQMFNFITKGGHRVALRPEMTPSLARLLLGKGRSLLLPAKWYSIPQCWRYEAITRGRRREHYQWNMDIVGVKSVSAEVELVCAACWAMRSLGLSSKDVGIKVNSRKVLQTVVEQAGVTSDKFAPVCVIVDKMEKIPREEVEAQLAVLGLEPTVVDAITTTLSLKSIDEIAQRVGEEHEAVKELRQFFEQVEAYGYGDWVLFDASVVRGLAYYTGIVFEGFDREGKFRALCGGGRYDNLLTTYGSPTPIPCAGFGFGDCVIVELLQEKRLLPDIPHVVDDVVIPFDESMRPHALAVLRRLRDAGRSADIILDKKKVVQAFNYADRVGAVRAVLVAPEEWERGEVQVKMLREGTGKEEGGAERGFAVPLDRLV
UniProt I6X8D2, whole entry: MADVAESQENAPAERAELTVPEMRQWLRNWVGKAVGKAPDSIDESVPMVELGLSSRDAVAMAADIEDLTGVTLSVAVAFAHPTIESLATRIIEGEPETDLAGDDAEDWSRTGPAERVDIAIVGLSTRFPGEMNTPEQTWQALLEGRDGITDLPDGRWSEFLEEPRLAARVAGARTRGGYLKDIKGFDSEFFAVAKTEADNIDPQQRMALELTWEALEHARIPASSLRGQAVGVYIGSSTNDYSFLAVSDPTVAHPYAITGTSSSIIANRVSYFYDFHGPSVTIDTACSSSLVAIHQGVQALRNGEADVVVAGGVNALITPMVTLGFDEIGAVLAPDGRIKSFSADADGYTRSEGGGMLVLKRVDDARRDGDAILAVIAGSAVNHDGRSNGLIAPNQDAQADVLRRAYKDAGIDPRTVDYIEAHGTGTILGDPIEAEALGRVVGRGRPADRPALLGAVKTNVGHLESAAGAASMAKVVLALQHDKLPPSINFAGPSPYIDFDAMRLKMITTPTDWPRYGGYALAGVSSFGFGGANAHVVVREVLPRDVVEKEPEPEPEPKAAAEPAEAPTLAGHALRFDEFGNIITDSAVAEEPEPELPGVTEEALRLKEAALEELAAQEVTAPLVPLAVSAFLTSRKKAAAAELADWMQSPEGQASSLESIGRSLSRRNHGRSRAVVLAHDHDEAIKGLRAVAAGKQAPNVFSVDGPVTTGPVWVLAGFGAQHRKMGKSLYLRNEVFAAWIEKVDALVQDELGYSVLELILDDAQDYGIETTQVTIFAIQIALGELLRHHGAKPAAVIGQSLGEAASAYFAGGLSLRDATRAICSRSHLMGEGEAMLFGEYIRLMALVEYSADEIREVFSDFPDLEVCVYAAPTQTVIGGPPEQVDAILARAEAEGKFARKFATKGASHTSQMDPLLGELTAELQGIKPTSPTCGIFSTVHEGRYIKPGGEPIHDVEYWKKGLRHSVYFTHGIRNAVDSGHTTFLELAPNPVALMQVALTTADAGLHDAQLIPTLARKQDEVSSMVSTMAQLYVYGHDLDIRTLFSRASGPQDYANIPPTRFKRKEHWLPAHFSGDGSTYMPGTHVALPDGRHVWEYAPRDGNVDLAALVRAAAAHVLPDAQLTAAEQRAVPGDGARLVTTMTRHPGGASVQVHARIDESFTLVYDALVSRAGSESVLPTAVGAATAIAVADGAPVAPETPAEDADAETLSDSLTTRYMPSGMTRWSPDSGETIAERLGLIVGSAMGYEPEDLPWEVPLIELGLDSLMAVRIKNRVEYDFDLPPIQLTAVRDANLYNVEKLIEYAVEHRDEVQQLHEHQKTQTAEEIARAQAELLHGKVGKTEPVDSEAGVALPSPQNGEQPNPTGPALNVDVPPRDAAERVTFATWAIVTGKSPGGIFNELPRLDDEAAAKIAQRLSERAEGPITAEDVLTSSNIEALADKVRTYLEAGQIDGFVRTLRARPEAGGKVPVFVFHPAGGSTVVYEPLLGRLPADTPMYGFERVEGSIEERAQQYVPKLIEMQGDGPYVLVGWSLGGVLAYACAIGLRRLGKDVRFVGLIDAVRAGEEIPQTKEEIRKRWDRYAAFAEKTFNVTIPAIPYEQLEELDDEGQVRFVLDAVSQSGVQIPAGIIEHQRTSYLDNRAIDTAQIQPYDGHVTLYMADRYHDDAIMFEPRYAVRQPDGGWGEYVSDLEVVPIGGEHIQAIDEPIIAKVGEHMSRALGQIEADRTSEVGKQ

Measurements from “University of Dundee, Small-Polar-MMV Screening Library” (2021), ChEMBL document CHEMBL3988442.

A: 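Protease assay of ClpP1P2, read by the AMC dye that it sets free. Target: ClpP1P2, Mycobacterium tuberculosis (UniProt P9WPC5 and UniProt P9WPC3). Compounds at 50 µM. Direction is inferred from only a few compounds that gave an IC50; most scored high, so higher reads as stronger inhibition. Most other retested compounds had strongly negative values. About 69,000 compounds were tested under these conditions; 0.015% (about 10) showed 50% or more at least once.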
B: 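Coenzyme A biosynthesis protein CoaBC, Mycobacterium tuberculosis (UniProt P9WNZ1). Enzyme assay of CoaBC with a phosphate dye (Biomol Green) read at 650 nm. Compounds at 30 µM. Direction is inferred from only a few compounds that gave an IC50; most scored high, so higher reads as stronger inhibition. Most strong results did not repeat in a second test. About 67,000 compounds were tested under these conditions; 0.06% (about 40) showed 50% or more at least once.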
C: 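Lysine-tRNA ligase, Plasmodium falciparum 3D7 (UniProt Q8IDJ8). Enzyme assay of the cytosolic lysyl-tRNA synthetase in 384-well plates, read by luminescence. Tested at 30 µM. Direction is inferred from only a few compounds that gave an IC50; most scored high, so higher reads as stronger inhibition. Size under these conditions: about 69,000 compounds, about 49 of them at 50% or above in at least one test.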
D: 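Enzyme assay of histidyl-tRNA synthetase; the read-out is not stated. Target: Histidine-tRNA ligase, Trypanosoma cruzi CL Brener (UniProt Q4DA54). Tested at 30 µM. The record gives no direction; compounds that gave an IC50 in retests scored well above the rest, so higher reads as stronger inhibition. Of about 69,000 compounds tested this way, about 31 (0.045%) reached 50% or more in at least one test.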
E: 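Enzyme assay of the thioesterase domain of polyketide synthase 13; the read-out is not stated. Target: Polyketide synthase Pks13, Mycobacterium tuberculosis (UniProt I6X8D2). Compounds at 30 µM. The record gives no direction; the compounds picked for IC50 retests had high values, so higher reads as stronger inhibition. About 67,000 compounds were tested under these conditions; 0.46% (about 300) showed 50% or more at least once.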

Each number is a percent effect as filed. How 0% and 100% were set is not recorded. Most values in the screen are low, and negative values occur. Compounds were drawn at random from those tested, without regard to their results. A dash means the value is not listed here; it may have been measured.

SMILES	A	B	C	D	E
CNC(=O)COC(=O)c1cccc(-n2ccc(C(F)(F)F)n2)c1	-7.025	-1.46	-4.387	5.455	-2.039
CC(Oc1ccccc1)C(=O)N1CCCN(Cc2cscn2)CC1 (stereo not given)	-15.57	3.069	1.161	12.35	-20.03
COc1ccc(/C=C/CN2CCN(c3nccnc3C)CC2)cc1	-0.5355	4.512	-1.162	6.627	-15.02
CC(C)OCCN(Cc1cccc(O)c1)C1CCC(O)CC1 (stereo not given)	-15.5	-1.322	5.391	3.39	-9.384
CN(C)S(=O)(=O)N1CCN(c2ccnc(N3CCCC3)n2)CC1	5.803	-17.54	1.933	-0.8264	-14.16
COc1ccc(S(=O)(=O)NCCC(O)c2ccccc2)c(C)c1 (stereo not given)	1.915	2.326	9.473	1.031	-28.08
O=C(c1cc[nH]n1)N(Cc1ccccc1)CC1CCC1	-7.517	2.211	2.826	1.235	-18.94
Cc1cc(N2CCN(CC(=O)N(C)C)CC2)nc(-c2ccncc2)n1	-1.895	-0.9447	5.815	19.57	-19.5
Clc1ccc(CN2CCOC[C@H](Oc3cccnc3)C2)cc1	-6.894	5.077	5.851	13.04	-29.36
O=C(c1ccc(C(F)(F)F)cc1)N1C[C@@H](CN2CCCCC2)[C@@H](CO)C1	-1.519	3.085	1.757	4.469	0.9455
Cc1cc(C)n(CC2CCCN2C(=O)Cc2cn3ccccc3n2)n1 (stereo not given)	0.5648	5.433	2.202	7.303	-5.393
Cc1noc(C(C)N2CCN(Cc3noc(C4CC4)n3)CC2)n1 (stereo not given)	-10.95	2.19	3.493	0.6061	-12.79
CCCN(Cc1ccc(S(=O)(=O)NC)cc1)Cc1ccccc1OC	-3.888	-0.4016	1.7	0	-28.93
O=C(Nc1ccccn1)NC1CCN(c2ccccc2OC(F)F)C1 (stereo not given)	-20.9	5.767	0.4388	4.938	0.08863
Cc1nc(C)c(S(=O)(=O)NC(=O)c2cccs2)s1	-5.559	3.641	-3.093	6.931	-0.6183
O=C(COC1CCCC1)N1CC[C@H]2OCC[C@@]2(COCC2CC2)C1	-1.468	-	0.05844	8.589	8
Cc1ccc(O)c(C(=O)N2CCOCC2c2c(C)n[nH]c2C)c1 (stereo not given)	-9.342	1.579	-0.6894	2.639	-14.74
CN1CCC(N(C)C(=O)c2cnn(-c3cc(F)ccc3F)c2N)CC1	5.258	3.155	0.8642	7.955	18.19
O=C(NCCNc1ncccn1)c1ccc(Cl)s1	3.665	3.515	2.023	3.061	7.826
Cc1cc(C)n(CC(C)NCCN2CCc3ccccc32)n1 (stereo not given)	-1.856	15.16	2.436	2.062	-12.11
CC(C)(C)c1nc(CN2CCCN(Cc3cccs3)CC2)no1	-18.5	2.151	3.126	22.29	-1.704
COC1CCN(C(=O)c2cc(-c3ccc(Cl)cc3)on2)CC1	-10.54	5.684	3.111	7.5	7.087
CN(c1ncc(S(N)(=O)=O)s1)C1CCc2ccccc21 (stereo not given)	6.836	1.597	3.775	2.381	32.07
O=C(NCCSCc1ccc(Br)s1)C1CCCN(c2cnccn2)C1 (stereo not given)	10.57	2.899	3.206	9.677	30.39
COc1c(C2CCCN2CC(=O)N2CCCCC2)c(C)nn1C (stereo not given)	11.34	-3.271	5.545	6.637	-6.038
O=C(CCc1n[nH]c2c1CCCC2)N1C[C@@H]2CC[C@H](C1)N(CC1CC1)C2	-3.574	13.91	4.446	44.81	-15.37
CC(C)(C)CN1CCCC(c2nccnc2Nc2cnccn2)C1 (stereo not given)	-2.058	0	2.179	7.692	14.06
CSc1ccc(C(=O)C2CCCN(C(=O)CCn3cncn3)C2)cc1 (stereo not given)	-1.43	5.825	1.509	5.025	9.265
O=C(c1cocn1)N1C[C@H]2CCC[C@@]2(COc2ccccn2)C1	3.818	14.71	10.3	15.7	-5.769
Cc1ccccc1OC1CCN(CC(=O)Nc2cn(C)nc2C)CC1	-14.49	-3.196	-0.4931	7.143	-5.819
c1ccc(CN2CCC3(CC2)CN(c2ccccn2)CCO3)nc1	-9.462	3.1	6.865	8.911	-27.75
Nc1ccnc(C(=O)N2CCCC3(CCC(=O)N(C4CCCC4)C3)C2)c1 (stereo not given)	-0.6139	4.968	6.961	3.061	-35.47
CCOCCn1c(=O)[nH]c2cc(C(=O)N(C)Cc3nc(C)c[nH]3)ccc21	-8.094	6.526	-5.424	2.5	-0.8504
Cc1ccc(CN(CCCn2ccnc2)Cc2c(F)cccc2F)s1	13.03	5.839	-2.358	-2.239	-30.19
Cc1csc(NC(=O)C2(C)CN(C)CCO2)n1 (stereo not given)	17.09	-4.067	0.4556	5.747	14.25
OCCN(Cc1cccnc1)c1cnc2ccccc2n1	-1.22	-2.593	6.074	6.061	-17.2
CCn1nc(C)c(NC(=O)CN2CCN(C(C)=O)CC2)c1C	-4.618	7.536	1.562	0.4292	-
CC[C@@]1(O)CCN(C(=O)CCc2cnn(C)c2)C[C@H]1O	-0.1648	15	1.692	4.865	-5.055
CN(C)C(=O)CN1CCN(Cc2coc(-c3cccc(F)c3)n2)CC1	-16.06	6.581	1.341	1.149	-136.2
CCc1nc(CC)n(CC(=O)N(CC)CC)n1	2.189	-3.175	2.534	0	-4.899
O=C(NCC(O)c1ccc(F)cc1F)c1cccc(F)c1 (stereo not given)	-4.233	4.762	7.801	2.041	-12.56
O=C1CC[C@H]2[C@H](CCN2c2ncc(F)cn2)N1c1cccnc1	3.534	3.583	6.64	4.902	11.46
c1ccc(N2CCN(Cc3cnc(C4CCCCO4)nc3)CC2)cc1 (stereo not given)	-12.52	-6.76	-0.03051	1.128	3.361
CS(=O)(=O)N1CCC2(CCCN(CCCc3ccccc3)C2=O)C1 (stereo not given)	-5.618	-0.8157	1.348	1.98	-
Cn1c(N)nnc1SC1CCCN(c2ccccc2F)C1=O (stereo not given)	-3.675	-	-1.182	8.28	-25.42

The first 5 entries again:

SMILES	A	B	C	D	E
CNC(=O)COC(=O)c1cccc(-n2ccc(C(F)(F)F)n2)c1	-7.025	-1.46	-4.387	5.455	-2.039
CC(Oc1ccccc1)C(=O)N1CCCN(Cc2cscn2)CC1 (stereo not given)	-15.57	3.069	1.161	12.35	-20.03
COc1ccc(/C=C/CN2CCN(c3nccnc3C)CC2)cc1	-0.5355	4.512	-1.162	6.627	-15.02
CC(C)OCCN(Cc1cccc(O)c1)C1CCC(O)CC1 (stereo not given)	-15.5	-1.322	5.391	3.39	-9.384
CN(C)S(=O)(=O)N1CCN(c2ccnc(N3CCCC3)n2)CC1	5.803	-17.54	1.933	-0.8264	-14.16